From PMC12729082

Chains of the proteins cited; added tags and fusions are not shown. Residues count along the entry.
UniProt P13501, residues 24-91: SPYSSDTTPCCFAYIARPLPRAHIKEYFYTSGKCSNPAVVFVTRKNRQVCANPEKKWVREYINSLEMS

T1: Histone deacetylase HDAC7 (human (endogenous in T24 and UMUC3 bladder cancer cells)) (UniProt Q8WUI4)
T1 sequence: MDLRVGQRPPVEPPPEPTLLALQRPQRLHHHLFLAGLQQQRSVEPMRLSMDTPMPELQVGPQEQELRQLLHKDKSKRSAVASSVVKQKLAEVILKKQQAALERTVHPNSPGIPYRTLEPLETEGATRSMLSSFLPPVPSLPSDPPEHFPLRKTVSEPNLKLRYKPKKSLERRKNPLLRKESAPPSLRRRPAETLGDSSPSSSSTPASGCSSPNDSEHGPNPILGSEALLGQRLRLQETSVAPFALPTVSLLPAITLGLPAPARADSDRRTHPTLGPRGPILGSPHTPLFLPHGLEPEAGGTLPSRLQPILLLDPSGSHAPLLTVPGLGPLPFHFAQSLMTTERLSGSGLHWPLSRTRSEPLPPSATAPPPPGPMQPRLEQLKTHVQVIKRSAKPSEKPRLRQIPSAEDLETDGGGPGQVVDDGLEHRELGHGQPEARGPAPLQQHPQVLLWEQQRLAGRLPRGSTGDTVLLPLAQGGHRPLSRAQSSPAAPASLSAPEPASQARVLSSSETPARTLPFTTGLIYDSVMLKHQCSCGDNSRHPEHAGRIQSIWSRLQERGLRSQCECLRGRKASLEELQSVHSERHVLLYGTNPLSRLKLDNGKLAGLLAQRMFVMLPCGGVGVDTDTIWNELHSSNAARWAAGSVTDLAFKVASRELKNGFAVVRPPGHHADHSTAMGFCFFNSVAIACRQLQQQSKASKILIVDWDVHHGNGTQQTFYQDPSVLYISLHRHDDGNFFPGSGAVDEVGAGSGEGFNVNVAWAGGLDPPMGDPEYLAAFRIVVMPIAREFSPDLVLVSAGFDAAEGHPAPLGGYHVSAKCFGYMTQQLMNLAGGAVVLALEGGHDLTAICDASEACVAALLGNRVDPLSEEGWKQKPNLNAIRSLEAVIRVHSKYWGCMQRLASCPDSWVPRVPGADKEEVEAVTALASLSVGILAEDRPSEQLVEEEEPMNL

B1: Serine and arginine rich splicing factor 7 (SRSF7) (protein, UniProt Q16629 1-238)
chain: MSRYGRYGGETKVYVGNLGTGAGKGELERAFSYYGPLRTVWIARNPPGFAFVEFEDPRDAEDAVRGLDGKVICGSRVRVELSTGMPRRSRFDRPPARRPFDPNDRCYECGEKGHYAYDCHRYSRRRRSRSRSRSHSRSRGRRYSRSRSRSRGRRSRSASPRRSRSISLRRSRSASLRRSRSGSIKGSRYFQSPSRSRSRSRSISRPRSSRSKSRSPSPKRSRSPSGSPRRSASPERMD

Experiments:
[1] = biological target: T1, Histone deacetylase HDAC7 (human (endogenous in T24 and UMUC3 bladder cancer cells)); assay: affinity purification with mass spectrometry; co-immunoprecipitation of HDAC7 from BCa cell lysate (20 mM Tris pH 7.5, 150 mM NaCl, 1% Triton X-100), protein A/G agarose beads, overnight at 4 °C, six washes, then mass spectrometry
[2] = biological target: T1, Histone deacetylase HDAC7 (human (endogenous in T24 and UMUC3 bladder cancer cells)); assay: as above; remark: listed apart in the source

Molecule	binding [1]	binding [2]
C-C Motif chemokine ligand 5 (CCL5) (from UniProt P13501 24-91)	no binding	–
B1	–	binds

Like-named read-outs stand apart in the source and are kept apart here. Results are given in words; binding and its absence hold for the method and conditions named. Binding seen in cells or lysates may run through a third protein. Here binding means that the protein was enriched with, or labelled near, the bait; the list need not be complete. For some assays here: No binding means not detected with the bait. Sequences can lack the tags named with a protein.
